At least one compound was matched to its structure with a doubt left.
Tested on: FIT2 mRNA
Assay: Rosiglitazone treatment of differentiating NIH 3T3 preadipocytes, Northern blot
Type: cell-based, mouse
Conditions: 1 μM rosiglitazone for 24 hrs, NIH 3T3 preadipocytes differentiated 0, 1, 2 or 3 days

## CN(CCOc1ccc(CC2SC(=O)NC2=O)cc1)c1ccccn1 (stereo not shown) [rosiglitazone]
  FIT2 mRNA: increased at all time points of differentiation
